Data on 1 substance can be found in patent publication US4232008A (Ortho Pharmaceutical Corporation, priority 1978, dated 1980).

Some peptides are written in HELM: one residue between dots, names in brackets for other building blocks, links after the first $.

This data set can be described thus: Boc solid-phase peptide synthesis; chloromethylated resin; dicyclohexyl carbodiimide. The following applies: whole synthesis, scale 2 mmol.

As for PEPTIDE1{A.K.S.Q}$$$$V2.0, the “final purity (method not given)” value worked out at 94% pure.
